Experiment in all cases: affinity purification with mass spectrometry; FLAG-HA-tagged E3 induced with DOX in stable Flp-In293 cells; lysates in 1% LMNG (150 mM NaCl, 50 mM Tris-HCl pH 7.4, 5 mM EDTA); anti-FLAG agarose, 2 hr; eluted with SDS; LC-MS/MS; HCIPs by BSCG and SINQ analysis
One experiment deals with T1, FH-RNF185 (human) (UniProt Q96GF1).
T1 sequence: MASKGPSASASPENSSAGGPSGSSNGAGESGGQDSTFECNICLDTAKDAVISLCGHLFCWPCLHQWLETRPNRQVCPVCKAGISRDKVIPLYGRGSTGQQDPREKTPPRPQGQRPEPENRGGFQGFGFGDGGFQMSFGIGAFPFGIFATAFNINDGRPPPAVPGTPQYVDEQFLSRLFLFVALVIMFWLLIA

By UniProt entry, the sequences of proteins in these tests, tags left out.
UniProt Q99942: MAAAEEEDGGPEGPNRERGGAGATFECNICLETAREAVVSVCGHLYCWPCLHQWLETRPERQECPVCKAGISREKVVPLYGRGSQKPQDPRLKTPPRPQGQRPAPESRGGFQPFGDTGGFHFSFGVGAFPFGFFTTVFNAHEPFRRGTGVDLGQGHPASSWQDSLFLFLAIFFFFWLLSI
UniProt Q71RG4: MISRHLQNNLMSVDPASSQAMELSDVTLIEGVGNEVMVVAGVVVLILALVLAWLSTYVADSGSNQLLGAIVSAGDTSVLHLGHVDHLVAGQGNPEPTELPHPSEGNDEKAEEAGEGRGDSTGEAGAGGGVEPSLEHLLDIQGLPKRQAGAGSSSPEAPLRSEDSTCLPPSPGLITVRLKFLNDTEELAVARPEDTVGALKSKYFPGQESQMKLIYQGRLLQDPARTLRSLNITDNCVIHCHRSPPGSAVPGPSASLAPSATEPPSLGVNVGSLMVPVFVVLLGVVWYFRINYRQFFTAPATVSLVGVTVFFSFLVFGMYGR
UniProt Q4ZIN3: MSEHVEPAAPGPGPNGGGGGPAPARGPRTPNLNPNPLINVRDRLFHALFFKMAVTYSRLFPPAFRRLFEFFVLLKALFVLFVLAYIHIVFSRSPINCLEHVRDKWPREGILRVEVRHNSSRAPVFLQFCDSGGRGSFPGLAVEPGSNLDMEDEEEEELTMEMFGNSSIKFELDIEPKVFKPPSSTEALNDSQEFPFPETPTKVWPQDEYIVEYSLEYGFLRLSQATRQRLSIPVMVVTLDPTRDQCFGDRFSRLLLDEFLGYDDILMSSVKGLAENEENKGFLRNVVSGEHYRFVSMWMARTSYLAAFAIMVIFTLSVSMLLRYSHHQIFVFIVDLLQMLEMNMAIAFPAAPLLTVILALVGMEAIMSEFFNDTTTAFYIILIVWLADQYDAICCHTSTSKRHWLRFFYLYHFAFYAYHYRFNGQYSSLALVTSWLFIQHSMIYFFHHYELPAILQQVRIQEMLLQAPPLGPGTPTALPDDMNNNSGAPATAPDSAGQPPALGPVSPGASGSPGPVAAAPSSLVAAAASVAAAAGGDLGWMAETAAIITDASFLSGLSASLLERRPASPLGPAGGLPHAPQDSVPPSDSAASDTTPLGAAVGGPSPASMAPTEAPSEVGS
UniProt P55061: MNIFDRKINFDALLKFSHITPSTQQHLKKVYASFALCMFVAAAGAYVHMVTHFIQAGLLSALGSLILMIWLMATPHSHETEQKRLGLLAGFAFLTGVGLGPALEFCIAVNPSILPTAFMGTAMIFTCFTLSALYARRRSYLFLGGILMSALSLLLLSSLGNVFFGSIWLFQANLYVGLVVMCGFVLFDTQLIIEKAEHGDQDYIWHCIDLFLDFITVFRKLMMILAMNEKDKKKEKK

Experiment [1] concerns the target T2, FLAG-HA-tagged RNF170 (human) (UniProt Q96K19).
T2 sequence: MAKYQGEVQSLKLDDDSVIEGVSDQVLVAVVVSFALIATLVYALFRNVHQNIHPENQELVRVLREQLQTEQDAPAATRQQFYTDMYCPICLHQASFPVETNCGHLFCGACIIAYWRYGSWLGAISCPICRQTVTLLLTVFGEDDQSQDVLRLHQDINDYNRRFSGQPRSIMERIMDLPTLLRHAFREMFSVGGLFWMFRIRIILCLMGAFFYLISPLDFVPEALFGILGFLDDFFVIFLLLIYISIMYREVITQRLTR

For experiment [2], the target named is T3, FLAG-HA-tagged MARCH4 (human) (UniProt Q9P2E8).
T3 sequence: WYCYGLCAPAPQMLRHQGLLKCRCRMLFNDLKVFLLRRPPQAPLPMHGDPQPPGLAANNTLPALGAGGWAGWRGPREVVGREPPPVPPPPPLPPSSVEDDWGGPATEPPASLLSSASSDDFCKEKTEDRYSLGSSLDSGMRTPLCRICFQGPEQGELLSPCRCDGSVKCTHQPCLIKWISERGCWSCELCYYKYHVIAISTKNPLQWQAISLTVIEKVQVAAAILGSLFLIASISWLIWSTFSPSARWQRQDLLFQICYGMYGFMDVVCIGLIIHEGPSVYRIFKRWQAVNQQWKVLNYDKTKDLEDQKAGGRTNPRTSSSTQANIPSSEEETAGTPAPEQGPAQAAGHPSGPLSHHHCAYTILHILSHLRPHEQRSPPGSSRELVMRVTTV

Experiment [3] addresses FLAG-HA-tagged RNF5 (human) (UniProt Q99942).

These are yes or no findings as the source states them, for the method shown. In cells and extracts the contact can be indirect. A yes stands for co-enrichment or nearness to the bait. Other partners may have been found. For some assays here: Where a sequence is shown, tags or fusion partners need not be part of it.

Drawing on publication PMC7332293, this text covers binding for five substances.

For the substance TMUB2 (from UniProt Q71RG4 1-321), the binding result in the experiment with FH-RNF185 (human) is “binds”.

Regarding “TMEM259/Membralin (endogenous) (from UniProt Q4ZIN3 1-620)”, the binding result with FH-RNF185 (human) is “binds”.

As to “RNF5 (endogenous, found as HCIP) (from UniProt Q99942 1-180) (enzyme)”, in the experiment with FH-RNF185 (human), the binding entry was “binds”.

“TMBIM6/BI-1/Bax-inhibitor 1 (from UniProt P55061 1-237)”: the binding entry (with FH-RNF185 (human); in experiment [1]) was “binds” each time.

For the substance “VCP/p97 (from UniProt P55072 1-806) (enzyme)”, the binding result (in the experiment with FH-RNF185 (human); in experiment [2]; in experiment [3]) was “binds” in each case.
